We go through one substance from publication PMC12712664.

By UniProt entry, the sequences of proteins in these tests, tags left out.
UniProt P46937: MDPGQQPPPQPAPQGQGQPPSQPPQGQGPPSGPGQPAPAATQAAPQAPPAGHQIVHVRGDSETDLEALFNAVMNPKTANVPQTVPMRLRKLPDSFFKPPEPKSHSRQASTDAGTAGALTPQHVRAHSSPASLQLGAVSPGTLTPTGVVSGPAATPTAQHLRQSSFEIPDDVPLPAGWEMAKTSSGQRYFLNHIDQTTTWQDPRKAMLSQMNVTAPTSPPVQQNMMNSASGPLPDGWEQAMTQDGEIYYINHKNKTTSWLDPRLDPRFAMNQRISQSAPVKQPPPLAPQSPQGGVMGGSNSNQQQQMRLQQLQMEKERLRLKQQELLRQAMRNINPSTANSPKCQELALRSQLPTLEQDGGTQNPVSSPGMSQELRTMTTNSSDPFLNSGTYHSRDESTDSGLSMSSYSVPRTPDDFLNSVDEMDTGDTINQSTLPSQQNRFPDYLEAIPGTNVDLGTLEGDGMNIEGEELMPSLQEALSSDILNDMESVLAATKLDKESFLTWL
UniProt P49407: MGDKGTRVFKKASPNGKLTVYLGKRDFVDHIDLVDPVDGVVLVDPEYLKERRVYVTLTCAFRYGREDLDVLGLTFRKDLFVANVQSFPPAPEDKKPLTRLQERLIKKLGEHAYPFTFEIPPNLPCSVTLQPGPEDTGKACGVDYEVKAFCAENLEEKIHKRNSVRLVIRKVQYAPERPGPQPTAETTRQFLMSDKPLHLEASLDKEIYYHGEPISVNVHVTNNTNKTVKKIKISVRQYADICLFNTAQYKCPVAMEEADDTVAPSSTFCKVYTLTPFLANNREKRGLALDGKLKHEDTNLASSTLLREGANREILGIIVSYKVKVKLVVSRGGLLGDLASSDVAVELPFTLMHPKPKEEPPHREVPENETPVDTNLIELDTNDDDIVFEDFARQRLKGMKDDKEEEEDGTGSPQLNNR

This experiment addresses Yes-associated protein (human (endogenous in HCT8)) (UniProt P46937). The experiment can be described thus: co-IP; endogenous YAP immunoprecipitated with anti-YAP antibody (normal IgG as control), protein A/G-agarose beads, RIPA lysate, overnight at 4°C; β-arr1 detected by Western blot; cells untreated or treated with oxaliplatin (legend: HCT8, 1 μM, 24 h; methods: 293T, 10 μM, 24 h). On the technique in general: A western blot detects proteins with antibodies after separation by electrophoresis.

Results are given in words; binding and its absence hold for the method and conditions named. Binding seen in cells or lysates may run through a third protein. Some entries that bind do so weakly or less than the wild type.

With β-arrestin1 (from UniProt P49407 1-418), the binding entry was “binds”.
